Results from PubChem BioAssay AID588499 (NMMLSC, 2011).
Out of some 360,000 compounds screened, about 610 (0.17%) were called active. The inconclusive results got no clear call from the source; some entries with a clear call stand among them for comparison. Rule as the data show it: active = inhibition above about 30%; inconclusive = no clear call, values can overlap the other calls; inactive = below that.

Test system: Botulinum neurotoxin type A light chain protease (Clostridium botulinum A str. ATCC 3502)
Assay: blockers of BoNT/A LC substrate cleavage – biochemical, flow cytometry, MLPCN library, primary screen (AID 588499); also: plate controls were buffer without enzyme for full effect and enzyme alone for no effect
Settings: multiplex microsphere protease substrate cleavage, at 10 µM, stronger effect = higher value

Compound	inhibition
CC(NCc1ccccc1)c1ccccc1O (stereo not given)	inconclusive: 5.3%
CCc1cc[n+](/C(C(=S)Nc2cccc(C)c2)=C(/[O-])c2ccc(C)c([N+](=O)[O-])c2)cc1	active: 31.6%
CC(=O)C1=C(C)N2CCN=C2S1	inconclusive: 27.8%
CCN(CCCNC(=O)CN1C(=O)COc2ccccc21)c1ccccc1	active: 30.5%
CC(C)NS(=O)(=O)c1ccc(NC(=O)C(C)OC(=O)CCC(=O)c2cccs2)cc1 (stereo not given)	inconclusive: -3.6%
Cc1cccc2nc3c(nc12)-c1ccccc1C3=O	inconclusive: 3.4%
CCCN1CCc2c(sc3nc(SCC)n(-c4ccccc4)c(=O)c23)C1	active: 33.9%
Cc1cc(C(=O)OCC(=O)c2ccc3c(c2)NC(=O)CO3)c2ccccc2n1	inconclusive: 17.4%
COC(=O)c1ccc(C(C2C(=O)CC(C)(C)CC2=O)C2C(=O)CC(C)(C)CC2=O)cc1	inconclusive: -16.2%
Cc1ccc(NC(=O)c2cc(S(=O)(=O)N(C)C)ccc2N2CCCC2)cc1S(=O)(=O)N(C)C	inconclusive: 3%
C=CCn1c(SCc2ccc(C(=O)NCCO)cc2)nc2ccccc2c1=O	inconclusive: -0.3%
C=CCn1c(SCC(=O)NCC2CCCO2)nc2scc(-c3ccco3)c2c1=O (stereo not given)	inconclusive: 3.6%
CCOC(=O)CN(C(=O)CSc1nnc(-c2ccc(OC)c(OC)c2)o1)c1ccccc1	inconclusive: 0.4%
Nc1nc(Nc2ccccc2F)nc(N2CCOCC2)c1[N+](=O)[O-]	inconclusive: -8.9%
COc1ccccc1CC(=O)NNC(=O)CN(C)S(=O)(=O)c1ccc(Cl)cc1	inactive: -4.3%
C[C@H](CO)N1C[C@H](C)[C@@H](CN(C)C(=O)OCc2ccccc2)OCc2cn(nn2)CCCC1=O	inactive: 0.2%
O=[N+]([O-])c1ccc(N2CCCCC2)nc1N1CCCCC1	inconclusive: -29.3%
COc1ccc(NC(=O)N(Cc2ccc3c(c2)OCO3)C2CC(=O)N(c3ccc(OC)cc3)C2=O)cc1 (stereo not given)	inactive: -2.1%
CCOC1=C2CN(S(=O)(=O)c3ccc(C)cc3)[C@H](c3ccccc3)C[C@@H]2N(S(=O)(=O)c2ccccc2C)[C@H](c2ccccc2)C1	inactive: -0.9%
O=C1c2cccnc2C(Nc2ccc(S(=O)(=O)N3CCCCC3)cc2)N1Cc1ccccc1 (stereo not given)	inactive: -1.3%
OCc1nc(CO)n(Cc2ccccc2)n1	inconclusive: 5.3%
CN(C)/C=C\C(=C/C(=O)C(F)(F)F)Nc1ccccc1Oc1ccccc1	inactive: -1.5%
CN(Cc1ccccc1)C(=O)c1ncn2c1c(=O)[nH]c1cccnc12	inactive: -0.1%

Compound	inhibition
O=C(NCCCN1CCOCC1)C(=O)N/N=C/c1cccc2ccccc12	inconclusive: 2.2%
CCOC(=O)CSc1nc2c(c(=O)[nH]c(=O)n2C)n1C/C=C(/C)Cl	inconclusive: -1.4%
CCOc1ccc(NC(=O)COc2ccc(-n3cnnn3)cc2)cc1	inconclusive: -1.6%
CC[n+]1c(/C=C2\Sc3ccccc3N2C)ccc2cccc(C)c21	active: 61.5%
CCCCN(CCCC)C1=Nc2ccccc2N/C1=C(/C#N)C(=O)OCC	active: 64.8%
CC(=O)Nc1ccc(S(=O)(=O)N(C)c2ccc(OCCOc3ccccc3F)cc2)cc1	inactive: -3.2%
CCOCCCNC(=S)NCCCNc1nc2cc3c(cc2cc1C#N)OCO3	inactive: -1.4%
O=C(NC(Cc1c[nH]c2ccccc12)c1nnc2n1CCCCC2)c1ccc(Cl)cc1 (stereo not given)	inconclusive: 6.4%
CCCCNC(=O)Nc1ccccc1C(=O)NCCC	inconclusive: -2%
O=C(CCc1ccc(S(=O)(=O)N2CCOCC2)cc1)Nc1ccc2ccccc2c1	inconclusive: 0.4%
CCc1ccc(C(=O)N2CCCC2)s1	inconclusive: -1.7%
CN1CCN(C(=O)c2ccc(-n3cccc3)cc2)CC1	inconclusive: -1.7%
CCCCC[C@H](O)/C=C/[C@@H]1[C@@H](C/C=C\CCCC(=O)O)[C@@H](O)C[C@H]1O	inactive: 0.1%
COCCCn1c(C(=O)NCCN2CCOCC2)cc2c(=O)n3cccc(C)c3nc21	inactive: -0.8%
NC(=O)C1CCN(C(=O)CC(c2ccccc2)c2ccccc2)CC1	inconclusive: -5.9%
N#CCNc1ccc([N+](=O)[O-])cc1C#N	inconclusive: -1.1%
O=C(CSc1nnc(-c2cccnc2)n1Cc1ccccc1)N1CCOCC1	inconclusive: -2.7%
CC(=O)c1cccc(NC(=O)c2csc(-n3nc(C)cc3C(F)(F)F)n2)c1	inconclusive: 0.3%
Cc1ncsc1CCC(=O)N1CCCC(Nc2ccc(C(C)C)cc2)C1 (stereo not given)	inconclusive: 9.9%
Oc1ccc(N2CCN(Cc3nc4ccccc4[nH]3)CC2)cc1	inactive: -0.4%
CC(=O)c1ccccc1Oc1ncnc(N)c1[N+](=O)[O-]	inactive: -1.3%
O=C(NCc1cccc(F)c1)c1cccc2c1C(=O)c1ccc(N3CCC(Cc4ccccc4)CC3)cc1S2(=O)=O	inactive: 21%
CCCOc1ccc(C(=O)N2CCCC2)cc1OC	inconclusive: 0.5%

Quoted from the listing:
Entry of Cc1ncsc1CCC(=O)N1CCCC(Nc2ccc(C(C)C)cc2)C1 (stereo not given) under inhibition: inconclusive: 9.9%
Entry of CCOC(=O)CSc1nc2c(c(=O)[nH]c(=O)n2C)n1C/C=C(/C)Cl under inhibition: inconclusive: -1.4%
Entry of O=C(NC(Cc1c[nH]c2ccccc12)c1nnc2n1CCCCC2)c1ccc(Cl)cc1 (stereo not given) under inhibition: inconclusive: 6.4%

The list continues:

Compound	inhibition
O=C(CSc1ccsc1[N+](=O)[O-])NCCc1ccccc1	inactive: 0.3%
COc1ccc(C2C(C(=O)c3cccs3)=C(O)C(=O)N2c2nncs2)cc1 (stereo not given)	inconclusive: -1.2%
CC(C)(C)C(=O)Nc1cccc(S(=O)(=O)NC2=NCCC2)c1	inconclusive: 1.9%
CCN(Cc1ccccc1)Cc1c(C)[nH]c2c(C)c(C)ccc2c1=O	inconclusive: -1.7%
COc1cccc(OCC(O)CN2C(C)CCCC2C)c1 (stereo not given)	inactive: 0%
CC1=C(C(=O)N2CCOCC2)C(c2ccccc2F)C2=C(CCCC2=O)N1 (stereo not given)	inactive: -0.5%
c1cncc(-c2noc(-c3cccc4ccccc34)n2)c1	inactive: 0.4%
O=C(/C=C/c1ccc(S(=O)(=O)N2CCOCC2)cc1)NC(=S)Nc1ccc(N2CCOCC2)cc1	inactive: 0.7%
CCN1/C(=C\C=C\C2=[N+](CC)c3ccccc3C2(C)C)C(C)(C)c2ccccc21	active: 91.9%
Cc1ccc(CSc2nc3c(c(=O)[nH]2)C(c2ccncc2)C2=C(CCCC2=O)N3)cc1 (stereo not given)	inconclusive: -2.1%
Cc1nnc(-c2cnn(-c3ccccc3)c2N)n1Cc1ccc(F)cc1	inconclusive: 1.1%
CCN1CCN(C2=CC3=CC(=C(C#N)C#N)CCC3CC2)CC1 (stereo not given)	inactive: -8.2%
Clc1ccc(-c2nnc(C3CC3)o2)cc1	inconclusive: -9.8%
CCOC(=O)c1cnc(C(F)(F)F)nc1Oc1ccccc1	inconclusive: -21.4%
Cc1cc(Nc2ccc([N+](=O)[O-])cc2)c2ccccc2n1	inconclusive: -2.1%
CCOC(=O)C1=C(CN2c3ccccc3CC2C)NC(=O)NC1c1ccccc1 (stereo not given)	active: 54.5%
O=c1[nH]c(CN2CCN(C/C=C/c3ccccc3)CC2)nc2ccccc12	inconclusive: -3.3%
CC1C(=O)OC(c2ccc(Br)cc2)C(C)(C)C1=O (stereo not given)	inconclusive: 17.8%
N#Cc1nc(-c2ccccc2F)oc1N1CCCCC1	inactive: -0.1%
COc1ccccc1NC(=O)c1ccc(S(=O)(=O)N2CCOCC2)cc1	inconclusive: -0.8%
O=S(=O)(c1cccc(-c2cn3ccccc3n2)c1)N1CCCCC1	inactive: -0.7%
CCN(CC)C(=O)c1cc2cc(Br)ccc2oc1=O	inconclusive: 4.7%
CSc1ccc(-c2cc3c(c4c2ccn4C)C2CCC3O2)cc1 (stereo not given)	inactive: -1.5%

Reprinted at random: two entries already listed, in no set order.
Compound	inhibition
CCOC(=O)C1=C(CN2c3ccccc3CC2C)NC(=O)NC1c1ccccc1 (stereo not given)	active: 54.5%
Cc1nnc(-c2cnn(-c3ccccc3)c2N)n1Cc1ccc(F)cc1	inconclusive: 1.1%

(listing goes on)

Compound	inhibition
CCCCCOc1ccc(C(=O)NC(C(=O)O)C(C)C)cc1 (stereo not given)	inconclusive: 2.9%
Cc1cc2c(C)nc(-c3ccccc3)nc2o1	inactive: -0.5%
COc1ccccc1C(C[N+](=O)[O-])c1c[nH]c2ccccc12 (stereo not given)	inconclusive: -31.5%
O=C1NC(=O)C2(Cc3ccccc3N3CCCC32)C(=O)N1c1cccc(Cl)c1 (stereo not given)	inconclusive: 1%
CC(=O)c1sc2nc(CSc3nnnn3-c3ccccc3)[nH]c(=O)c2c1C	inactive: 2.7%
COC(=O)c1c(C)oc(C)c1S(=O)(=O)NCc1ccco1	inconclusive: -27.7%
COC(=O)c1cccc(NC(=O)/C=C/c2cccc([N+](=O)[O-])c2)c1	inconclusive: 9.1%
Cc1ncc2c(c1OC(=O)c1ccccc1)COC(C)(C)OC2	inconclusive: -1.9%
CC(C)CCN(C(=O)CCSc1ccc(F)cc1)c1c(N)n(Cc2ccccc2)c(=O)[nH]c1=O	inconclusive: 1.8%
CC1(C)CC2(C)OCCN2C(=S)N1 (stereo not given)	inconclusive: -11.2%
Cc1nn(C2CCCCC2)c(N)c1-c1ccccc1	inconclusive: 0.1%
CCn1c(SCC(=O)Nc2cccc(C)c2)nc2nc3c(cc2c1=O)COC(C)(C)C3	inconclusive: 9.5%
Cc1ccc(C(=O)NNc2ncnc3c2cnn3C)cc1	inconclusive: -57.9%
Cc1cc(-c2nc(C)c(-c3nnc(SCC(=O)Nc4ccccc4)n3C)s2)no1	inconclusive: 12.7%
CCN1C(=O)/C(=C/C=C2\C=CN(CC)c3ccccc32)SC1=S	active: 41.1%
CC1C/C(=C/c2cccn2C)C(=O)/C(=C/c2cccn2C)C1 (stereo not given)	inactive: 5.7%
CCC(C)(C)n1nnnc1C(C(C)C)N(Cc1ccco1)Cc1cc2cc3c(cc2[nH]c1=O)OCO3 (stereo not given)	active: 32.8%
CCOc1ccc(-c2c(=O)n(OCc3ccccn3)c3ccccc3[n+]2[O-])cc1	inactive: 1.3%
CCCCOC(=O)c1ccc(NC(=O)c2ocnc2C)cc1	inconclusive: -3%
CC(Cc1ccccc1)NC(=S)CN1CCCC1=S (stereo not given)	inconclusive: 14.4%
O=C(c1ccccc1)N1CCN(c2ccccc2)CC1	inactive: -0.5%
